Source: publication doi:10.1101/2025.06.30.662394
Like-named read-outs stand apart in the source and are kept apart here. Results are given in words; binding and its absence hold for the method and conditions named. Binding seen in cells or lysates may run through a third protein. Some results given as binding are weak or reduced against the parent protein; the word gives no strength. For some assays here: Where a sequence is shown, tags or fusion partners need not be part of it.

Amino acid sequences for entries named in this document (tags omitted). Residues count along the entry.
UniProt Q9BYB0: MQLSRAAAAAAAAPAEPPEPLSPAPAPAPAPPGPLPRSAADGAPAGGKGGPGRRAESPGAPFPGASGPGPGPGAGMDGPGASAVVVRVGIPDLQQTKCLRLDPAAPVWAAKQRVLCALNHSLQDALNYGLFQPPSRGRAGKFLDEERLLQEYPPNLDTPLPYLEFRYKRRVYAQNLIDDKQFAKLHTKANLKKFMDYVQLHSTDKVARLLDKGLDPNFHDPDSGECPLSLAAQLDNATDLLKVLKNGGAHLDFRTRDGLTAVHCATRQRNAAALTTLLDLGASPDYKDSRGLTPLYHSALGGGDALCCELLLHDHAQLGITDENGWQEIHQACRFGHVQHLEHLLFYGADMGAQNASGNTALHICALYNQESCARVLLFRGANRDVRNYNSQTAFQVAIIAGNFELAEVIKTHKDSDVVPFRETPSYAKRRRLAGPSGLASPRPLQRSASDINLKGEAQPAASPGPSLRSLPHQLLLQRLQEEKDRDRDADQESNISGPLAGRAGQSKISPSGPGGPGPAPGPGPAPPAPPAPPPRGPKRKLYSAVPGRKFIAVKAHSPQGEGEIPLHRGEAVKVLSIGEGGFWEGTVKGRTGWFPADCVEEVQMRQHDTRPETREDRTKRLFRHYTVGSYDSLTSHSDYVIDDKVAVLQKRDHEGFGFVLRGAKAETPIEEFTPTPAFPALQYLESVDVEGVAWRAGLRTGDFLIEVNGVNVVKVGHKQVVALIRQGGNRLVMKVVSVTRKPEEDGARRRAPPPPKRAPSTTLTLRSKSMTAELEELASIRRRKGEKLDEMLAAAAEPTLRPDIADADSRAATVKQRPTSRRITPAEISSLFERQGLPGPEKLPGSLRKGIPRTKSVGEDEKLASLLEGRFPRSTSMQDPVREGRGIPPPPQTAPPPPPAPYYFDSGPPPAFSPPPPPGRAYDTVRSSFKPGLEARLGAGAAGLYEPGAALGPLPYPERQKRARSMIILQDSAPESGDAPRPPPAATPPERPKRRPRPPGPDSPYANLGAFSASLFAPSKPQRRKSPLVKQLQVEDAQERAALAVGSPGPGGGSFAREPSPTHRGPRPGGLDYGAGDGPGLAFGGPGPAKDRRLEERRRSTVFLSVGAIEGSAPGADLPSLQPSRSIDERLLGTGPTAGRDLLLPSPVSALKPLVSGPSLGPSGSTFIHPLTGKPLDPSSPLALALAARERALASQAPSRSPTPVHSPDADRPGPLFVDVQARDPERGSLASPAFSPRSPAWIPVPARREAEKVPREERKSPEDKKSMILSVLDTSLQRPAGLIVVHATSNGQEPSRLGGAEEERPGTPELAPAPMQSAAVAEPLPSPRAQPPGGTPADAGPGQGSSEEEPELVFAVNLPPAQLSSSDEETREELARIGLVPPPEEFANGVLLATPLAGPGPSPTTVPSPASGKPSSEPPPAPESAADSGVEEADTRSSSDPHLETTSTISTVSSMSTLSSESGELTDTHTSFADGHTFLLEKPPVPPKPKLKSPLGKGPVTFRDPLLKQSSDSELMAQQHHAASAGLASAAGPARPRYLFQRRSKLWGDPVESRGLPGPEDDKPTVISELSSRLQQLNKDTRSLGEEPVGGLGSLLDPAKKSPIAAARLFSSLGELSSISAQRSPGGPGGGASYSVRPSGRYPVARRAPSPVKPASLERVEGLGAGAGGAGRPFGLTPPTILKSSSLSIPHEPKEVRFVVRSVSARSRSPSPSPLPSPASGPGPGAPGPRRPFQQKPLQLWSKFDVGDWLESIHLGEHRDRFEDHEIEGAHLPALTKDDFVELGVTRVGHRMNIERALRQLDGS
UniProt P37023, residues 22-503: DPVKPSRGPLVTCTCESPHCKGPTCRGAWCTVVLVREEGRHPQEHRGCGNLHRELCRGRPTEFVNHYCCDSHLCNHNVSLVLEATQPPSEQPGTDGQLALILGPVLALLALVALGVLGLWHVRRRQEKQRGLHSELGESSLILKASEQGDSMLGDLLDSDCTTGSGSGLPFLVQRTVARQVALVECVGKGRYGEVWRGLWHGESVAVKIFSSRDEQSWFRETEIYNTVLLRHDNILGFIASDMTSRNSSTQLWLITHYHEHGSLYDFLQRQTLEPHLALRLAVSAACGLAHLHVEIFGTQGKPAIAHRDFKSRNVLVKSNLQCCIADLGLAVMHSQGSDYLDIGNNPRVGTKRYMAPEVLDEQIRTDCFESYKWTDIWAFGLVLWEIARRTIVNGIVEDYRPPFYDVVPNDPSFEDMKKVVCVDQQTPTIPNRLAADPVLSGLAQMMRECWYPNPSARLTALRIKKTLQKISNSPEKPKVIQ

Experiments:
Assay in all cases: co-IP
[1] = target: T1, Lphn2 with C-terminal mClover3 (wild-type, full-length Latrophilin-2) (UniProt O95490)
T1 sequence: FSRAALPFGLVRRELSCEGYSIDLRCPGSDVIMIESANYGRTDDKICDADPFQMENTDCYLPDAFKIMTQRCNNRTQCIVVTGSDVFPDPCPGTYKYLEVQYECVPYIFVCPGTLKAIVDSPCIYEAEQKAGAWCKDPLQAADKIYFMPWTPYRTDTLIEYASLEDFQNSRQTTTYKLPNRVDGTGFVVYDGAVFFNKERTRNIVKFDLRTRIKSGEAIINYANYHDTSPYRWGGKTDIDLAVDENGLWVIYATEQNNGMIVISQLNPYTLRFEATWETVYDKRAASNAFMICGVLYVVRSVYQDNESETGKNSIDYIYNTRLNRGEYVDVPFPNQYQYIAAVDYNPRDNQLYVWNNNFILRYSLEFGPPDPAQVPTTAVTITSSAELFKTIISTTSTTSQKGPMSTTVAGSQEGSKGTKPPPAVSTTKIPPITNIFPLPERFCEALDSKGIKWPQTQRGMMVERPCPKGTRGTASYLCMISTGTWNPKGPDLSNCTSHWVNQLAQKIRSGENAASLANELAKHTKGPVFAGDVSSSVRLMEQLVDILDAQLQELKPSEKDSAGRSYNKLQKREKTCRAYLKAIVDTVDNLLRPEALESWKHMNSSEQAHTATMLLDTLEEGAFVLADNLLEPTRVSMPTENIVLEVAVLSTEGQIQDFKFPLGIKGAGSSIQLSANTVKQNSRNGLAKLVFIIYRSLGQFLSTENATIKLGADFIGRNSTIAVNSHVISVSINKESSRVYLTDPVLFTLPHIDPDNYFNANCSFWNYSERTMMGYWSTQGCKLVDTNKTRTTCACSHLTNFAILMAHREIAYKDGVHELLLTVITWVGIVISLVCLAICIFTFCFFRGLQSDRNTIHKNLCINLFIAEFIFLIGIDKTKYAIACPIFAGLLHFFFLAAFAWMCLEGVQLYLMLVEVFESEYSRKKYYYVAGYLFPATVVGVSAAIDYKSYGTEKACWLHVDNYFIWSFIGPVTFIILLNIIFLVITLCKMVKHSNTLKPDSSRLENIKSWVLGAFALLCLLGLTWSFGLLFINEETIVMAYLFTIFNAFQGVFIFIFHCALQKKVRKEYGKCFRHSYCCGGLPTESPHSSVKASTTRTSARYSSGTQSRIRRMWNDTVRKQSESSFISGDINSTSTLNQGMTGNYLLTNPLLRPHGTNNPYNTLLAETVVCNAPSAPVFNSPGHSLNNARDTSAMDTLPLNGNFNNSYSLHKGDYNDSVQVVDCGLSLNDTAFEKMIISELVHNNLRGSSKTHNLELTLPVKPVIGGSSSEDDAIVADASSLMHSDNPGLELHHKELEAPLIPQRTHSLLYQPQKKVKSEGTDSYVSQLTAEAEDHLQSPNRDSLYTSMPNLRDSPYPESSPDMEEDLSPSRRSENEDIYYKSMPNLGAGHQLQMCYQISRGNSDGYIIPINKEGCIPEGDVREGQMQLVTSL

[2] = target: T2, Endoglin (endogenous) (human (endogenous in HUVECs)) (UniProt P17813)
T2 sequence: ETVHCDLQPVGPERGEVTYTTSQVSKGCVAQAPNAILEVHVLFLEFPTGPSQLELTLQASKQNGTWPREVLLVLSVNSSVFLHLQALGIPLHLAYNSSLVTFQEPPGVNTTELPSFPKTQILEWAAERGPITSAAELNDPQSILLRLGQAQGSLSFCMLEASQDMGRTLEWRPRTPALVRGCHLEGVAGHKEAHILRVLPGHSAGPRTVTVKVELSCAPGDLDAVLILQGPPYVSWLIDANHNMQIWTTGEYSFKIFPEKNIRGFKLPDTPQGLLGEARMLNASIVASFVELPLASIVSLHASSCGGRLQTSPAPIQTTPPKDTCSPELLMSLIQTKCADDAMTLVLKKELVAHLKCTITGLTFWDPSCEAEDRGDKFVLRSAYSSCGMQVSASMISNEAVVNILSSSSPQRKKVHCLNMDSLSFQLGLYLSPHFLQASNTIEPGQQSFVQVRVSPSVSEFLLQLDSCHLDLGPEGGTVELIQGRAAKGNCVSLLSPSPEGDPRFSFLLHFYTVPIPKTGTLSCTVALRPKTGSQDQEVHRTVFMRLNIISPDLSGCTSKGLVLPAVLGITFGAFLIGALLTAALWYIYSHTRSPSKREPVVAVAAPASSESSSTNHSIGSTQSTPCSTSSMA

GFP-tagged Shank3 = GFP-tagged Shank3 (UniProt Q9BYB0)
[3] = target: T1, Lphn2 with C-terminal mClover3 (wild-type, full-length Latrophilin-2); remark: listed apart in the source

For “Activin receptor-like kinase 1 (ALK1, endogenous) (from UniProt P37023 22-503)”, the binding [1] was “binds” and the binding [2] was “binds”.

B1: Endoglin (endogenous) (receptor, UniProt P17813 26-658)
chain: T2 sequence
With B1 the binding (GFP-tagged Shank3) was “binds” and the binding [3] was “binds”.

B2: flag-tagged Lphn2 (Lphn2-Flag) (receptor, UniProt O95490 26-1459)
chain: T1 sequence
B2 was tested, and the binding (GFP-tagged Shank3) was “binds”.
